# PubChem BioAssay AID248 (DTP/NCI, 2004)
# The list does not hold the whole screen: it gathers tests that were run many times, whatever their T/C, doses with no T/C, and many T/C values between a quarter and a half above the control. Further doses and runs are listed elsewhere. T/C: endpoint of the treated group in % of that of the vehicle group. Some doses have a count of surviving animals in place of a T/C: the source files T/C as zero there, which appears to mark a toxic dose or a test without result, not a measured value. Some survivor counts are full or nearly so, which does not show that the dose was tolerated: survival well below the control is almost never listed, so the zero probably covers shortened survival too. Counts of survivors are from the toxicity check (mostly the fifth day) where no day follows; animals may have died later. Schedules are NCI's codes, read here as Q, the interval in days (D) or hours (H), X, the number of doses. Some entries were tested several times; the results are listed from low to high. For survival time, this PubChem deposit counts one and a half times the control or more as active, and values a quarter to a half above the control carry no call in these data; other NCI protocols may use other cut-offs. Some T/C values carry the count of animals alive at the toxicity check (mostly the fifth day); without a count, all were alive then.
# Test system: L1210 leukemia ip in BDF1 mice, survival T/C
# Assay: NCI In Vivo Anticancer Drug Screen. Data for tumor model L1210 Leukemia (intraperitoneal) in B6D2F1 (BDF1) mice
# Settings: T/C endpoint: mean survival time, higher T/C = longer survival
# [1] = dose: 200.0 mg/kg/injection, schedule: Q01DX009 (ip), vehicle: Klucel (hydroxypropylcellulose) (HPC)
# [2] = dose: 400.0 mg/kg/injection, schedule: Q01DX009 (ip), vehicle: Klucel (hydroxypropylcellulose) (HPC)
# [3] = dose: 400.0 mg/kg/injection, schedule: Q01DX001 (ip), vehicle: carboxymethylcellulose (CMC)
# [4] = dose: 400.0 mg/kg/injection, schedule: Q01DX009 (ip), vehicle: saline with Tween-80
# [5] = dose: 200.0 mg/kg/injection, schedule: Q04DX003 (ip), vehicle: saline
# [6] = dose: 400.0 mg/kg/injection, schedule: Q04DX003 (ip), vehicle: saline
# [7] = dose: 200.0 mg/kg/injection, schedule: Q01DX001 (ip), vehicle: saline
# [8] = dose: 400.0 mg/kg/injection, schedule: Q01DX001 (ip), vehicle: saline
# [9] = dose: 100.0 mg/kg/injection, schedule: Q01DX009 (ip), vehicle: saline with Tween-80
# [10] = dose: 200.0 mg/kg/injection, schedule: Q01DX009 (ip), vehicle: saline with Tween-80
# [11] = dose: 400.0 mg/kg/injection, schedule: Q04DX003 (ip), vehicle: saline with Tween-80
# [12] = dose: 400.0 mg/kg/injection, schedule: Q04DX002 (ip), vehicle: saline
# [13] = dose: 200.0 mg/kg/injection, schedule: Q01DX005 (ip), vehicle: saline
# [14] = dose: 200.0 mg/kg/injection, schedule: Q04DX003 (ip), vehicle: Klucel (hydroxypropylcellulose) (HPC)
# [15] = dose: 400.0 mg/kg/injection, schedule: Q04DX003 (ip), vehicle: Klucel (hydroxypropylcellulose) (HPC)
# [16] = dose: 50.0 mg/kg/injection, schedule: Q01DX009 (ip), vehicle: saline with Tween-80
# [17] = dose: 200.0 mg/kg/injection, schedule: Q04DX003 (ip), vehicle: saline with Tween-80
# [18] = dose: 50.0 mg/kg/injection, schedule: Q04DX003 (ip), vehicle: saline
# [19] = dose: 100.0 mg/kg/injection, schedule: Q04DX003 (ip), vehicle: saline
# [20] = dose: 200.0 mg/kg/injection, schedule: Q01DX009 (ip), vehicle: saline
smiles,measurement,setting,value
CCCCSP(=O)(c1ccccc1)N1CCCCC1 (stereo unspecified),survivor count,"dose: 200.0 mg/kg/injection, schedule: Q04DX002 (ip), vehicle: saline with Tween-80",0 of 3
same,survivor count,"dose: 400.0 mg/kg/injection, schedule: Q04DX002 (ip), vehicle: saline with Tween-80",0 of 3
NC(=S)Nc1c(Cl)cc(Cl)cc1Cl,survivor count,[1],3 of 6
same,survivor count,[2],0 of 6
O=[N+]([O-])/C(N=Nc1ccc2ccccc2c1)=N\Nc1ccc2ccccc2c1,survivor count,"dose: 75.0 mg/kg/injection, schedule: Q01DX001 (ip), vehicle: acetone",6 of 6
same,survivor count,"dose: 150.0 mg/kg/injection, schedule: Q01DX001 (ip), vehicle: acetone",5 of 5 and 6 of 6
same,survivor count,"dose: 300.0 mg/kg/injection, schedule: Q01DX001 (ip), vehicle: acetone",6 of 6
CCN(CC)c1ccc(Cc2cc(O)c3c(c2O)C(=O)c2ccccc2C3=O)cc1,survivor count,[1],3 of 3
CCCCN(CCCC)c1ccc(/C=C/c2ccnc3ccccc23)cc1,survivor count,[3],6 of 6
CCC1(O)CC(OC2CC(N(C)C)C(OC3CC(O)C(O)C(C)O3)C(C)O2)c2c(cc3c(c2O)C(=O)c2c(O)ccc(O)c2C3=O)C1C(=O)OC (stereo unspecified),T/C,"dose: 12.8 mg/kg/injection, schedule: Q01DX001 (ip), vehicle: saline",135 % of control
same,T/C,"dose: 25.6 mg/kg/injection, schedule: Q01DX001 (ip), vehicle: saline",139 % of control
same,T/C,"dose: 51.2 mg/kg/injection, schedule: Q01DX001 (ip), vehicle: saline",129 % of control [5 of 6 alive]
O=[N+]([O-])CC(OCCCc1ccccc1)C(Cl)(Cl)Cl (stereo unspecified),survivor count,[4],2 of 5
NCCc1cnc2ccccc2n1,survivor count,[5],1 of 6
same,survivor count,[6],0 of 6
O=C1C(Br)=C(C2CCCCC2)C(=O)c2ccccc21,survivor count,[3],1 of 4
CNN=C(C)C,survivor count,"dose: 50.0 mg/kg/injection, schedule: Q01DX009 (ip), vehicle: saline",0 of 6
same,survivor count,"dose: 100.0 mg/kg/injection, schedule: Q01DX001 (ip), vehicle: saline",0 of 6
same,survivor count,[7],0 of 6
same,survivor count,[8],0 of 6
CC1=C(O)C(=O)C(c2c(C)cc(C)c(Br)c2C)=C(O)C1=O,survivor count,"dose: 150.0 mg/kg/injection, schedule: Q01DX009 (ip), vehicle: Klucel (hydroxypropylcellulose) (HPC)",3 of 6
same,survivor count,"dose: 300.0 mg/kg/injection, schedule: Q01DX009 (ip), vehicle: Klucel (hydroxypropylcellulose) (HPC)",0 of 6
Cc1ccc(NC(=O)NCC2(C)CC(NC(=O)Nc3ccc(C)cc3)CC(C)(C)C2)cc1 (stereo unspecified),survivor count,[9],6 of 6
same,survivor count,[10],6 of 6
same,survivor count,[11],6 of 6
NC(CCl)=NCc1ccccn1,survivor count,"dose: 200.0 mg/kg/injection, schedule: Q04DX002 (ip), vehicle: saline",1 of 3
same,survivor count,[12],2 of 3
O=C1C=CC(=O)c2[nH]c(-c3ccccc3)cc21,survivor count,"dose: 50.0 mg/kg/injection, schedule: Q04DX002 (ip), vehicle: Klucel (hydroxypropylcellulose) (HPC)",0 of 3
CC(=O)C[N+]12CN3CN(CN(C3)C1)C2,survivor count,[13],1 of 3
same,survivor count,[12],0 of 3
BrC1CC2OC2C2OC12 (stereo unspecified),survivor count,[7],0 of 6
same,survivor count,[8],0 of 6
O=C1C=CC(=O)N1c1ccc(O)cc1,survivor count,"dose: 10.0 mg/kg/injection, schedule: Q04DX003 (ip), vehicle: Klucel (hydroxypropylcellulose) (HPC)",2 of 6
same,survivor count,"dose: 20.0 mg/kg/injection, schedule: Q04DX003 (ip), vehicle: Klucel (hydroxypropylcellulose) (HPC)",1 of 6
same,survivor count,"dose: 40.0 mg/kg/injection, schedule: Q04DX003 (ip), vehicle: Klucel (hydroxypropylcellulose) (HPC)",0 of 6
same,survivor count,"dose: 80.0 mg/kg/injection, schedule: Q04DX003 (ip), vehicle: Klucel (hydroxypropylcellulose) (HPC)",0 of 6
same,survivor count,"dose: 100.0 mg/kg/injection, schedule: Q04DX003 (ip), vehicle: Klucel (hydroxypropylcellulose) (HPC)",0 of 6
same,survivor count,[14],0 of 6
same,survivor count,[15],0 of 6
Nc1c(Br)cc(Br)cc1C(=O)O,survivor count,"dose: 400.0 mg/kg/injection, schedule: Q01DX001 (ip), vehicle: other",4 of 4
Cc1cc2nc(CCl)[nH]c2cc1C,survivor count,[8],0 of 4
COC(=O)C(CC(C)C)NC(=O)C(N)Cc1ccc(OCc2ccccc2)cc1 (stereo unspecified),survivor count,[16],6 of 6
same,survivor count,[9],2 of 6
same,survivor count,[17],5 of 6
same,survivor count,[11],0 of 6
CCN(CC)CCOc1cc(C)cc2ccccc12,survivor count,[5],2 of 6
same,survivor count,[6],0 of 6
Cc1c2cnccc2c(C)c2c1c1ccccc1n2CCCN,survivor count,[18],6 of 6
same,survivor count,[19],2 of 6
same,survivor count,[5],0 of 6
same,survivor count,"dose: 400.0 mg/kg/injection, schedule: Q01DX001 (oral), vehicle: saline",3 of 6
same,survivor count,[6],0 of 6
OC(CC(CC(O)(C(F)(F)F)C(F)(F)F)=NNc1ccccc1)(C(F)(F)F)C(F)(F)F,survivor count,[17],0 of 6
same,survivor count,[11],0 of 6
Cc1cc(C)[s+]s1,survivor count,"dose: 75.0 mg/kg/injection, schedule: Q01DX009 (ip), vehicle: saline",5 of 6
same,survivor count,"dose: 100.0 mg/kg/injection, schedule: Q01DX009 (ip), vehicle: saline",4 of 6
same,survivor count,[20],1 of 6
same,survivor count,[6],1 of 6
C#CCNc1c(C)cccc1C,survivor count,[2],0 of 6
same,survivor count,[15],2 of 6
O=C1C=C(O)c2ccc(=O)[nH]c2C1=O,survivor count,[8],2 of 6
COC1CCCC[CH]1[Hg][Br] (stereo unspecified),survivor count,"dose: 25.0 mg/kg/injection, schedule: Q01DX009 (ip), vehicle: saline with Tween-80",0 of 3
same,survivor count,[16],0 of 3
same,survivor count,[9],0 of 3
same,survivor count,[10],0 of 3
COc1ccc(C(C(C(C)=O)C(C)=O)C(C(C)=O)C(C)=O)cc1,survivor count,[11],4 of 6
CCc1ccc2c(c1)N(CC(C)CN(C)C)c1ccccc1S2 (stereo unspecified),survivor count,"dose: 25.0 mg/kg/injection, schedule: Q01DX009 (ip), vehicle: saline",3 of 6
same,survivor count,[18],0 of 4
same,survivor count,[19],0 of 4
same,survivor count,[5],0 of 4
CN1CCN(Cc2nc3cccc4c3c([n+]2[O-])-c2ccccc2-4)CC1,survivor count,[4],0 of 10
C=CC[Se]c1ncnc2c1ncn2C1OC(CO)C(O)C1O (stereo unspecified),survivor count,"dose: 100.0 mg/kg/injection, schedule: Q01DX005 (ip), vehicle: saline",1 of 6
same,survivor count,[13],0 of 6
same,survivor count,[20],3 of 6
O=C1c2cc3c(cc2CCC1N1CCOCC1)CCCC3 (stereo unspecified),survivor count,[11],1 of 6
BrP(Nc1cccc(NP(Br)(c2ccccc2)(c2ccccc2)c2ccccc2)c1)(c1ccccc1)(c1ccccc1)c1ccccc1,survivor count,"dose: 40.0 mg/kg/injection, schedule: Q01DX001 (ip), vehicle: saline",6 of 6
same,survivor count,"dose: 75.0 mg/kg/injection, schedule: Q01DX001 (ip), vehicle: saline",0 of 6
same,survivor count,"dose: 150.0 mg/kg/injection, schedule: Q01DX001 (ip), vehicle: saline",0 of 6
same,survivor count,"dose: 300.0 mg/kg/injection, schedule: Q01DX001 (ip), vehicle: saline",0 of 6
CCc1cnccc1C,survivor count,[14],2 of 6
same,survivor count,[15],0 of 6
